Record: PubChem BioAssay AID1259308 (NCATS, 2017)
Purpose: 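Genes whose loss raises luciferase production in HEK293 cells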 (primary screen). Cells: human HEK293 embryonic kidney cells stably expressing firefly luciferase (HEK-CMV-Luc2-Hygro). Reagent: single siRNA against human genes, 0.8 pmol siRNA per well. Duration: 72 h. Detection: 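Luciferase light (ONE-Glo) measured on one replicate plate set and viability (CellTiter-Glo) on the other, scaled to a negative control siRNA, with robust z-scores and luciferase per cell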. Reading the numbers: total luciferase, z-score: higher = more reporter protein produced. Call rule: 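An siRNA counts as active if its total luciferase robust z-score exceeds 3; genes with two or more such siRNAs out of three were retested with fresh siRNAs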. Meaning of the calls: active = raised luciferase; inactive = no rise.
Here is a random part of about 59,000 deposited reagents. About 1,510 of them (2.6%) were called active. 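Calls use total luciferase alone and ignore viability, so some active siRNAs may act by altering cell number.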 The numbers tell different reagents against one gene apart. Further read-outs or replicates are left out here. No sequences are given here.

Silencing of CYREN (cell cycle regulator of NHEJ) #1 came out at: total luciferase, z-score 1.56; inactive.
For CYREN (cell cycle regulator of NHEJ) #2 the deposit lists total luciferase, z-score 0.0426; inactive.
CYREN (cell cycle regulator of NHEJ) #3 showed total luciferase, z-score -0.886; inactive.
Against MS4A1 (membrane spanning 4-domains A1) #1, the values are total luciferase, z-score -0.247; inactive.
After knock-down of MS4A1 (membrane spanning 4-domains A1) #2, the record shows total luciferase, z-score 0.75; inactive.
MS4A1 (membrane spanning 4-domains A1) #3 gave total luciferase, z-score 0.00545; inactive.
Knock-down of ATF3 (activating transcription factor 3) #1 gave: total luciferase, z-score -0.22; inactive.
Against ATF3 (activating transcription factor 3) #2, the values are total luciferase, z-score -0.66; inactive.
Silencing of ATF3 (activating transcription factor 3) #3 came out at: total luciferase, z-score 1.18; inactive.
PDE6H (phosphodiesterase 6H) #1 showed total luciferase, z-score -1.33; inactive.
Depletion of PDE6H (phosphodiesterase 6H) #2 gave: total luciferase, z-score 0.739; inactive.
Against PDE6H (phosphodiesterase 6H) #3 the deposit lists total luciferase, z-score 1.89; inactive.
